Test results from PubChem BioAssay AID504834 (National Center for Advancing Translational Sciences (NCATS), 2011).
Hit rate of the full screen: of about 320,000 compounds, about 22,000 (6.9%) were called active. Inconclusive results, whose numbers are uncertain, are shown with a selection of clear calls. Calls follow the shape of the dose curve; as a rule, active = well fitted inhibition curve with a large enough effect; inconclusive = small, poorly fitted or top-dose-only effect, or another doubt; inactive = no such curve, though single readings can be large or run the other way. Potencies beside an inconclusive call are fits to weak or partial responses and may not hold up.

Experiment: Primary qHTS for delayed death inhibitors of the malarial parasite plastid, 96 hour incubation
Settings: P. falciparum luciferase reporter growth; series mostly up to 28.7 µM
Procedure, shortened: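 96 h incubation, 37 C, 5% CO2, of luciferase-reporter P. falciparum-infected RBCs (2% hematocrit, 0.05% parasitemia final) with test compounds; endpoint luminescence.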
Potency is read from the fitted curve at half-maximal effect.

SMILES | Potency
COc1ccc(OC)c(Nc2cc(C)nc3ccccc23)c1 | inconclusive: 10.4 µM [inhibitor, partial curve, poor fit]
COC(=O)c1sccc1NC(=O)CC1C(=O)NCCN1C(=O)Nc1ccc(C(F)(F)F)cc1 (stereo not given) | inactive
CCN(CC)C(=O)c1cc2c(=O)n3ccccc3nc2s1 | inactive
COc1ccc(OC)c(S(=O)(=O)Nc2cc(Cl)cc(Cl)c2)c1 | inconclusive: 8.28 µM [inhibitor, partial curve, poor fit]
COC(=O)Cc1ccc(OCc2ccc(Cl)nc2)cc1 | inactive
CC(=O)c1ccc(N2CCN(C3CCC(C(C)(C)C)CC3)CC2)cc1 (stereo not given) | inconclusive: 18.5 µM [inhibitor, single point]
Cc1ccccc1-n1ncc2c(SCC(=O)NC3CCCC3)ncnc21 | inconclusive: 2.33 µM [inhibitor, single point]
COC(=O)c1sc2ccccc2c1NC(=O)c1ccc(S(=O)(=O)N2CCCC(C)C2)cc1 (stereo not given) | inconclusive: 0.657 µM [inhibitor, full curve]
COC(=O)c1ccccc1NC(=O)CSc1nc(O)c(-c2ccccc2)c(=O)[nH]1 | inconclusive: 0.928 µM [inhibitor, partial curve, poor fit]
O=C(CSc1n[nH]c(-c2cccs2)n1)N1CCN(S(=O)(=O)c2ccc3ccccc3c2)CC1 | active: 5.86 µM
CCCCCC(=O)N1CCN(S(=O)(=O)c2ccc3c(c2)OCCO3)CC1 | inconclusive: 10.4 µM [inhibitor, single point]
O=c1/c(=C\c2cccc(O)c2)sc2nc(-c3ccccc3)c(-c3ccccc3)n12 | inactive
c1ccc(-c2nnc(SCc3nc4ccccc4[nH]3)n2Cc2ccco2)nc1 | inconclusive: 18.5 µM [inhibitor, single point]
O=C(c1cc2c(s1)CCCC2)N1CCN(S(=O)(=O)c2ccccc2)CC1 | inconclusive: 18.5 µM [inhibitor, single point]
Cc1ccc(COc2coc(CO)cc2=O)cc1 | inactive
CCc1ccc(C(=O)NNC(=O)CCc2nc3ccccc3c(=O)[nH]2)cc1 | inactive
COc1ccc(NC(=O)Cn2c(-c3ccccc3)cc(C(C)=O)c2C)c(OC)c1 | inactive
Cc1ccc(S(=O)(=O)Nc2c(C)ccc3nsnc23)cc1 | inconclusive: 18.5 µM [inhibitor, single point]
COc1cc(CNc2ncn[nH]2)ccc1OCc1cccc(C)c1 | inactive
O=C(NC1CCCCC1)C(c1ccc(F)cc1)N(CCCN1CCOCC1)C(=O)c1ccc(CN2CCOCC2)o1 (stereo not given) | inactive
CCN1C(=O)[C@@H]2[C@H](C1=O)[C@@H]1C(=O)Nc3ccccc3C(=O)N1[C@@H]2c1ccc(Br)cc1 | inconclusive: 16.5 µM [inhibitor, single point]
Nn1c(Cc2ccccc2F)n[nH]c1=S | inconclusive: 7.38 µM [inhibitor, partial curve]
CC1(C)CC(=O)C/C(=N\NC(=O)C2CC23CCC3)C1 (stereo not given) | inconclusive: 10.4 µM [inhibitor, single point]
CC(=O)N1CCC(N(CCN2CCOCC2)C(=S)Nc2ccc(C)cc2)CC1 | inconclusive: 10.4 µM [inhibitor, single point]

SMILES | Potency
Cc1ccc(-c2cc(C(=O)NC3=NCCS3)c3ccccc3n2)cc1C | active: 2.08 µM
CC(C(=O)NC1CCCC1)N(C(=O)c1ccc(-c2ccccc2)[nH]1)c1ccccc1F (stereo not given) | inconclusive: 11.7 µM [inhibitor, single point]
O=C(NC(c1ccc(Cl)cc1)c1cc(Cl)c2cccnc2c1O)c1cccnc1 (stereo not given) | inactive
N#Cc1c(NC(=O)c2ccc(-c3ccccc3[N+](=O)[O-])o2)sc2c1CCCC2 | inactive
CCOC(=O)N1CCN(C(=O)C(NC(=O)c2ccc(CC)cc2)C(C)C)CC1 (stereo not given) | inactive
CCN(CC)CCNC(=O)c1ccc(Sc2ccc(C)cc2)c(NC(C)=O)c1 | inconclusive: 9.28 µM [inhibitor, single point]
CCCCNC(=S)N(CCN(C)C)Cc1cc2cc3c(cc2[nH]c1=O)OCCO3 | inconclusive: 14.7 µM [inhibitor, single point]
CC1Nc2ccccc2C(=O)N1NC(=O)c1ccc(Br)cc1 (stereo not given) | active: 8.28 µM
CCN(Cc1ccncc1)Cc1nc(Cc2ccccc2Cl)no1 | inconclusive: 18.5 µM [inhibitor, single point]
CCOC(=O)C1=C(C)N=c2s/c(=C\c3ccc(OCC(=O)O)cc3)c(=O)n2C1c1ccccc1 (stereo not given) | active: 10.4 µM
O=C(Nc1ccccc1)C1=C[C@@H](c2coc3ccccc3c2=O)C[C@@H](OCCCCO)O1 | inconclusive: 13.1 µM [inhibitor, single point]
CCOC(=O)c1nc(C)[nH]c1C(=O)OCC | inconclusive: 10.4 µM [inhibitor, partial curve]
Cc1cc(N2CCN(C)CC2)nc2ccc(NC(=S)NCCN3CCc4ccccc4C3)cc12 | inconclusive: 0.0928 µM [inhibitor, full curve, poor fit]
Cc1ccc(S(=O)(=O)NCC2CCC(C(=O)N3CCOCC3)CC2)cc1 (stereo not given) | inactive
COc1ccc(S(=O)(=O)Nc2ccc(-c3ccc4nncn4n3)cc2)c(OC)c1 | inconclusive: 11.7 µM [inhibitor, single point]
COc1ccc(N2C(=NC(=O)C3CC3)SC3CS(=O)(=O)CC32)cc1Cl (stereo not given) | inactive
COCCn1cc(C(=O)NCc2ccco2)c2c3ccccc3n(C)c2c1=O | inconclusive: 8.28 µM [inhibitor, single point]
CC1=Nc2cccc3cccc(c23)N1 | inconclusive: 9.28 µM [inhibitor, single point]
Cc1cc(CC(C)C)n(-c2nc3ccccc3c(=O)n2OCc2ccccc2)n1 | active: 11.7 µM
Cc1cccc(NS(=O)(=O)c2cc(C(=O)N3CCOCC3)ccc2Cl)c1 | inconclusive: 9.28 µM [inhibitor, partial curve, poor fit]
CNC(=O)/C(C#N)=C/c1c(N2CCN(c3ccc(OC)cc3)CC2)nc2c(C)cccn2c1=O | inconclusive: 9.28 µM [inhibitor, partial curve, poor fit]
O=C(CN(c1ccc(F)cc1)S(=O)(=O)c1ccccc1)Nc1ccccc1C(=O)O | inconclusive: 0.465 µM [inhibitor, partial curve, poor fit]
CC(C)C(NC(=O)c1ccc(F)cc1)C(=O)N1CCC1 (stereo not given) | inconclusive: 0.294 µM [inhibitor, full curve, poor fit]
O=C(c1ccccc1)c1cnc(-c2ccccc2)s1 | inactive

SMILES | Potency
COc1cccc(OCc2cc(C(=O)N3CCN(C(C)=O)CC3)no2)c1 | inconclusive: 11.7 µM [inhibitor, single point]
CC[n+]1c(/C=C2\C=C(C)CC(C)(C)C2)sc2ccccc21 | inconclusive: 0.37 µM [inhibitor, full curve, poor fit]
O=C(/C=C/c1ccc(F)cc1)NCc1cccs1 | inactive
COCCCNC(=S)NCCNc1nc2cc(C)cc(C)c2cc1C#N | inconclusive: 18.5 µM [inhibitor, single point]
Cn1c(SCC(=O)Nc2cccc(S(=O)(=O)NC3=NCCCCC3)c2)nnc1-c1ccccc1 | inconclusive: 18.5 µM [inhibitor, single point]
Cc1nnc(N(C)C(=O)c2cccnc2)s1 | inconclusive: 18.5 µM [inhibitor, single point]
COc1ccc(S(=O)(=O)N(C)c2ccc(C(=O)NCc3ccncc3)cc2)cc1 | inactive
CC1CCCC(C)N1C(=O)COc1ccc(C(=O)N/N=C/c2ccc(C(=O)O)cc2)cc1 (stereo not given) | inconclusive: 13.1 µM [inhibitor, partial curve, poor fit]
Cc1cc2c(cc1S(=O)(=O)CCC(=O)N1CC(C)CC(C)C1)OCC(=O)N2 (stereo not given) | inactive
COc1ccc(-c2c(-c3ccc(OCC(=O)NN)cc3O)n[nH]c2C)cc1 | active: 9.28 µM
COc1ccc2c(ccc[n+]2CC(=O)c2ccc(C)cc2)c1 | inconclusive: 2.33 µM [inhibitor, full curve, poor fit]
NNc1nc2ccccc2nc1C(F)(F)F | inactive
O=C(c1cc(C2CC2)nn1-c1ccccc1)N1CCN(c2ccccn2)CC1 | inconclusive: 18.5 µM [inhibitor, single point]
CC(C)=CC1C(C(=O)OCc2cccc(Oc3ccccc3)c2)C1(C)C (stereo not given) | inconclusive: 19 µM [inhibitor, single point]
CCOc1ccccc1C1c2[nH]c3ccccc3c2C[C@H]2C(=O)N(C3CC3)CC(=O)N12 (stereo not given in full) | active: 9.28 µM
CCC(C)Sc1cccc(-c2nc3ccc(Cl)cn3c2NCc2ccccc2)c1 (stereo not given) | active: 10.4 µM
O=C(N1CCOCC1)C(F)(F)C(F)(F)C(F)(F)C(F)(F)C(=O)N1CCOCC1 | active: 11.7 µM
CCOc1ccccc1C(C(=O)NC1CCCCC1)N(C(=O)c1csnn1)C1CC1 (stereo not given) | inconclusive: 2.08 µM [inhibitor, full curve, poor fit]
C[C@@H]1Cc2ccccc2N1NC(=O)c1ccc(Cl)c(S(N)=O)c1 (stereo not given in full) | inactive
CCCCOc1ccc(/C=C2/Sc3ccccc3C2=O)cc1 | inactive
CCOC(=O)/C(=N/Nc1ccccc1)c1csc(Nc2ccccc2)n1 | inconclusive: 18.5 µM [inhibitor, partial curve, poor fit]
Cc1ccc(C(=O)c2c[nH]c(C(=O)NCc3cccnc3)c2)cc1 | inconclusive: 8.28 µM [inhibitor, partial curve, poor fit]

Entries listed so far with a COOH group, in the order listed:
SMILES | Potency
CCOC(=O)C1=C(C)N=c2s/c(=C\c3ccc(OCC(=O)O)cc3)c(=O)n2C1c1ccccc1 (stereo not given) | active: 10.4 µM
O=C(CN(c1ccc(F)cc1)S(=O)(=O)c1ccccc1)Nc1ccccc1C(=O)O | inconclusive: 0.465 µM [inhibitor, partial curve, poor fit]
CC1CCCC(C)N1C(=O)COc1ccc(C(=O)N/N=C/c2ccc(C(=O)O)cc2)cc1 (stereo not given) | inconclusive: 13.1 µM [inhibitor, partial curve, poor fit]
